Results are given in words; binding and its absence hold for the method and conditions named. In cells and extracts the contact can be indirect. Binding calls can cover weak binding; strength is not graded here.
Assays:
[1] = target: T1, Vam6 (also named Vps39) (mouse (endogenous in iNKT cells)) (UniProt Q8R5L3); test: co-IP; expanded iNKT cells lysed in NP-40 buffer with protease inhibitors; antibody (1 μg/mL) on Dynabeads protein G, lysate incubated at 4 °C overnight; immunoblot
T1 sequence: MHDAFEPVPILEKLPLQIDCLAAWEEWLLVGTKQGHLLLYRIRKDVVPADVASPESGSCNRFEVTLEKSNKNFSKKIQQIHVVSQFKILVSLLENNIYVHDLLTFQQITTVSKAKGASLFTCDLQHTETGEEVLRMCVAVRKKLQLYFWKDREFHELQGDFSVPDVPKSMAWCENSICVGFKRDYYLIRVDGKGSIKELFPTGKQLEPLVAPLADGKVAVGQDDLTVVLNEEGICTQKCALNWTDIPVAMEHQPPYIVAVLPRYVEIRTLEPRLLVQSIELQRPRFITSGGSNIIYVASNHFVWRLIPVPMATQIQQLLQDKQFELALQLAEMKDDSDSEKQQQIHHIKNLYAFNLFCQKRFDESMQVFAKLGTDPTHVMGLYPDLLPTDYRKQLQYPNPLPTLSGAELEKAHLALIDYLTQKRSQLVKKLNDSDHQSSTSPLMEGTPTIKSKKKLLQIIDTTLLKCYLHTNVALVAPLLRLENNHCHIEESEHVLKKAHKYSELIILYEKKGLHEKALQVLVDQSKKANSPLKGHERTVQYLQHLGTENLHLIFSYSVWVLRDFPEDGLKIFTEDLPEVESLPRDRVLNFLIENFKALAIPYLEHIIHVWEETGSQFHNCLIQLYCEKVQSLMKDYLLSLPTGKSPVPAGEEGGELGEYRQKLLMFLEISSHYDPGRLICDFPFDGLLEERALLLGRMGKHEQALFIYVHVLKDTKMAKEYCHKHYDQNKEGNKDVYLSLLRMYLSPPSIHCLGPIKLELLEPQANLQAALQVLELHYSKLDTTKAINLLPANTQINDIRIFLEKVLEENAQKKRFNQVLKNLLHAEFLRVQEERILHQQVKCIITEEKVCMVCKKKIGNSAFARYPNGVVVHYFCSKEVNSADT

Protein sequences, listed by entry. Tags and fused reporters are not part of them. Lines headed by an entry give the natural chain unless they say otherwise; changes in a name come on top.
UniProt P51150: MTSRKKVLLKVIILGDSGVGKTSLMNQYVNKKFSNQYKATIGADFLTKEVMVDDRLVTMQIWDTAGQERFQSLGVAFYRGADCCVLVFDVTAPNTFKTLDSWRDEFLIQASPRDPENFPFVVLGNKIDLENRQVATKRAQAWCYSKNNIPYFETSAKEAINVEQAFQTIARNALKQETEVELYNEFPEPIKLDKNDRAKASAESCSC
UniProt Q60932: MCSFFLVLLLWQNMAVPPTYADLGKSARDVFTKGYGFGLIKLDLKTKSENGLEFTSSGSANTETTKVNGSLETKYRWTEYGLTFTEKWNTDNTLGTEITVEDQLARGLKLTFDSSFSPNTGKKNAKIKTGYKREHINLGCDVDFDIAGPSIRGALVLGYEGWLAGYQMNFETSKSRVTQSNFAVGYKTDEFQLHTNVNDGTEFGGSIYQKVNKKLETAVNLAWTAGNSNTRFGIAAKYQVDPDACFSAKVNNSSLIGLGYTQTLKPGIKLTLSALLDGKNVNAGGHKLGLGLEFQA

[2] = target: Rab7a (mouse (endogenous in iNKT cells)) (UniProt P51150); test: proximity ligation; in situ PLA (Duolink) in fixed, permeabilised CD1d-PBS57 tetramer+ iNKT cells stimulated with anti-CD3 plus anti-CD28 or CD1d-PBS57 tetramer for 4 hours; puncta counted by confocal microscopy or imaging flow cytometry; cells from Vam6+/+, Vam6+/-, Vdac1+/+, Vdac1+/-, Vdac1-/- mice, with or without AICAR

- binding [1]: binds
- binding [2]: binds
Substance: VDAC1 (from UniProt Q60932)

Reference: publication PMC9892639
